We go through 32 molecules from the supplement of paper PMC12889115.

The test system of this experiment is Salmonella enterica serovar Typhimurium SL1344. Nature of the experiment: bacterial growth OD600 after 18 h with compound and polymyxin B; higher = more bacterial growth (less inhibition). The note with it: 50 µM, Mueller-Hinton broth.

Some of the results follow. These are raw signals, not scaled to a control.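 Primary screen: polymyxin B was added at a level permeabilizing Salmonella outer membranes while sparing inner membranes. DMSO wells, both with and without polymyxin B, established maximum growth. Plate-to-plate variation meant each plate was ranked on its own, and the lowest-OD600 compounds were selected as hits.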

Regarding `CC(=O)Nc1ccc(C(=O)N2CCCC(Nc3cccc(F)c3)C2)cc1` (configuration not stated), the “bacterial growth OD600” value (polymyxin B 1 µg/mL) was found to be 0.004. For the molecule `O=C(c1ccc2c(c1)OCO2)N1CCc2[nH]nc(-c3ccccc3F)c2C1`, the “bacterial growth OD600” value (polymyxin B 0.75 µg/mL) worked out at 0.477.

In the case of `Cc1ccccc1-c1noc(-c2ccc(N3CCC(CCO)CC3)nc2)n1`, for the setting “polymyxin B 0.75 µg/mL”, the “bacterial growth OD600” value amounted to 0.532. Still for that read-out and setting: then `O=C(CCC1CCCN(Cc2ccccc2F)C1)NC1CC1` (configuration not stated), with 0.938; and `Nc1cc(C(=O)N2CCC(C3CCN(c4ncccn4)CC3)C2)ccn1` (configuration not stated), with 0.984. Turning to `CN(Cc1cccs1)Cc1cnc(S(C)(=O)=O)n1CC1CCCO1` (configuration not stated), the “bacterial growth OD600” value (polymyxin B 1 µg/mL) amounted to 1.03. As to `Cc1cc(-c2cc(F)cc3c2OC(CNC(=O)c2ccco2)C3)ccc1F` (configuration not stated), the “bacterial growth OD600” value (polymyxin B 0.75 µg/mL) was -0.001.

As to `CCCCC1CN(CCC(=O)NC(C)Cc2ccccn2)Cc2ccccc2O1` (configuration not stated), under “polymyxin B 0.75 µg/mL”, the “bacterial growth OD600” value amounted to 0.706. For the molecule `O=C(NCCc1c[nH]c2ccccc12)c1cccc(OC2CCN(C(=O)C3CC3)CC2)c1`, where the note is “polymyxin B 1 µg/mL”, the “bacterial growth OD600” value stood at 0.923. As for `COc1ccc(C(=O)N2CCOC(Cc3cccc(C(F)(F)F)c3)C2)o1` (configuration not stated), the “bacterial growth OD600” value (polymyxin B 0.75 µg/mL) was found to be 0.775. With `O=C(c1ccccc1OC1CCN(Cc2c(F)cccc2Cl)CC1)N1CCCC1`, the “bacterial growth OD600” value (polymyxin B 1 µg/mL) was determined as 1.08. On the same count and under the same terms, then `CCOC(=O)C1(Cc2ccccc2F)CCCN(C(=O)c2ccccc2C(=O)OC)C1` (configuration not stated), with 0.647; and `CCOC(=O)C1(Cc2ccc(F)cc2)CCCN(C(=O)c2cc(C(C)=O)n[nH]2)C1` (configuration not stated), with 1.01. For the molecule `CC(=O)N1CCN(c2nc(CN(CCc3ccccc3)Cc3ccccc3)nc3ccccc23)CC1`, the “bacterial growth OD600” value (polymyxin B 0.75 µg/mL) worked out at 0.844. Still for that read-out and setting: then `CC(=O)NCCC(=O)N1CCCC(CCc2cccc(C(F)(F)F)c2)C1` (configuration not stated), with 0.011; and `COc1ccccc1CCNC(=O)Cc1ccc(N2CCC(NCCn3cccn3)CC2)cc1`, with 0.813. For the molecule `Cc1ccc(CNC(=O)C2CCCN(C3CCN(C(=O)C4CC4)CC3)C2)cc1F` (configuration not stated), the “bacterial growth OD600” value (polymyxin B 1 µg/mL) amounted to 0.829.

For the molecule `COc1cc(CN2CCC(n3nccc3NC(=O)c3ccccc3)CC2)cc(OC)c1`, the “bacterial growth OD600” value (polymyxin B 0.75 µg/mL) was found to be 0.881. On the same count and under the same terms, the figure for `COc1ccccc1CCNC(=O)Cc1ccc(N2CCC(NC(C)Cc3cncs3)CC2)cc1` (configuration not stated) is 0.859.

In the case of `COCc1ccc(C(=O)NCc2cccnc2N2CCOCC2)o1`, where the note is “polymyxin B 1 µg/mL”, the “bacterial growth OD600” value was 1.05. Same read-out and setting: the figure for `CC(C)c1cc(CN2CCN(CC3CCCCC3)C(CCO)C2)n[nH]1` (configuration not stated) is 0.954; for `CC(C)C(=O)NC1CC(=O)N(CCc2ccc(F)cc2)C1` (configuration not stated) it is 1.04.

`COc1ccc(Cl)cc1NC(=O)CCC1CCCN(C(=O)C2=C(C)OCCO2)C1` (configuration not stated): for the setting “polymyxin B 1 µg/mL”, the “bacterial growth OD600” value came out at 0.837.

For `CCNC(=O)c1cc(CN(C)Cc2ccccc2)on1`, where the note is “polymyxin B 1 µg/mL”, the “bacterial growth OD600” value stood at 1.23.

With `Cc1ccn(CC(=O)NCCN2Cc3ccccc3OC(c3ccccc3F)C2)n1` (configuration not stated), the “bacterial growth OD600” value (polymyxin B 0.75 µg/mL) came to 0.912. The same measure, in the same setting: the figure for `O=C1NCCN(c2nc3nonc3nc2N2CCCCC2)C1Cc1ccccc1` (configuration not stated) is 0.772. Consider `COc1ncccc1C(=O)N(C)CC1CCCN(CCc2ccccc2C)C1` (configuration not stated), for which the “bacterial growth OD600” value (polymyxin B 1 µg/mL) was determined as 0.79. The same measure, in the same setting: the figure for `COc1ccc(CN(C)CC2CCCN(CCc3ccc(F)cc3)C2)cc1OC` (configuration not stated) is 0.829.

On to `Cc1cccc(NC(=O)CCC2CCN(C(=O)CSc3nncn3C)CC2)c1`, for which, where the note is “polymyxin B 1 µg/mL”, the “bacterial growth OD600” value amounted to 0.921. Consider `CC1(C)Cc2nc(N3CCC(O)CC3)ncc2C(NC2CCCCC2)C1` (configuration not stated), for which the “bacterial growth OD600” value (polymyxin B 0.75 µg/mL) was found to be 0.93. Same read-out and setting: the figure for `OC(Cc1ccccc1)c1ccc2c(c1)CN(Cc1ccccn1)CCO2` (configuration not stated) is 0.792; for `Cc1ccn(CCC(=O)N2CCC3(CC2)CC3C(=O)NCCC(c2ccccc2)c2ccccc2)n1` (configuration not stated) it is 0.007.
